# According to the supplement of paper PMC6411743:
# ± gives the standard deviation of the averaged measurements. The list shows a part of the results.
# Compound: Nc1nc2c(ncn2[C@@H]2O[C@H](COP(=O)(O)OP(=O)(O)OP(=O)(O)O)[C@@H](O)[C@H]2O)c(=O)[nH]1 [guanosine triphosphate]
# Experiment: NP40-soluble protein abundance relative to vehicle (solubility fold change) (ratio); higher = more soluble protein in presence of GTP
# Summary of the method: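 Crude Jurkat lysate, prepared by Dounce homogenisation, was exposed to eight concentrations from 0.1 to 10 mM for 10 min at room temperature and then 3 min at 37 °C. Solubilisation used 0.8% NP40 with benzonase for 60 min at 4 °C, followed by ultracentrifugation and TMT labelling of the supernatant for LC-MS/MS. After vsn normalisation of intensities, each value is the fold change against the detergent-processed vehicle within each replicate, across three independent experiments.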
Target,NP40-soluble protein abundance (concentration: 0.1mM),NP40-soluble protein abundance (concentration: 0.5mM),NP40-soluble protein abundance (concentration: 1mM),NP40-soluble protein abundance (concentration: 2mM),NP40-soluble protein abundance (concentration: 4mM),NP40-soluble protein abundance (concentration: 6mM),NP40-soluble protein abundance (concentration: 8mM),NP40-soluble protein abundance (concentration: 10mM)
A0A0B4J1W0|B4DDR8 and related entries (UniProt O75448),1.04 ± 0.07,1.08 ± 0.08,1.09 ± 0.11,1.13 ± 0.15,1.23 ± 0.11,1.12 ± 0.19,1.21 ± 0.13,1.11 ± 0.25
A0A0A0MTL5|Q13309 and related entries (UniProt Q13309),1.12 ± 0.076,1.04 ± 0.096,1.02 ± 0.075,0.981 ± 0.074,0.951 ± 0.07,0.958 ± 0.08,0.911 ± 0.044,0.855 ± 0.069
A2A2V1 and related entries (UniProt P04156+A2A2V1),1.033 ± 0.0069,0.812 ± 0.037,0.952 ± 0.021,1.146 ± 0.0053,0.9432 ± 0.0034,0.944 ± 0.021,0.871 ± 0.015,1.01 ± 0.076
A0A087X1N3|O75818 and related entries (UniProt O75818),1.12 ± 0.064,1.05 ± 0.07,1.01 ± 0.097,1.09 ± 0.11,1.08 ± 0.18,1.05 ± 0.15,1.06 ± 0.095,1.02 ± 0.12
A0A0J9YXM6|Q562E7 and related entries (UniProt Q562E7),1.005 ± 0.0072,1.08 ± 0.17,1.08 ± 0.29,1.04 ± 0.13,1.07 ± 0.16,1.02 ± 0.14,1.01 ± 0.2,0.99 ± 0.17
A0A0A0MTR2|Q8N543 (UniProt Q8N543),1.05 ± 0.048,1.05 ± 0.022,0.948 ± 0.023,0.942 ± 0.055,0.959 ± 0.06,0.897 ± 0.068,0.936 ± 0.03,0.883 ± 0.066
UniProt A3KN83 and related entries,0.984 ± 0.056,1.02 ± 0.038,0.948 ± 0.022,0.9619 ± 0.0023,0.93 ± 0.021,0.925 ± 0.0014,0.906 ± 0.035,0.916 ± 0.043
A0A0B4J1R7|Q96B45 (UniProt Q96B45),0.918 ± 0.15,0.977 ± 0.18,1.02 ± 0.17,1.09 ± 0.11,1.09 ± 0.24,1 ± 0.19,1.02 ± 0.12,1.06 ± 0.18
UniProt A2VDJ0-3|A2VDJ0-5|A2VDJ0-6|H0Y2M0,1.1 ± 0.11,1.06 ± 0.029,1.1 ± 0.073,1.11 ± 0.13,1.16 ± 0.15,1.15 ± 0.1,1.2 ± 0.09,1.1 ± 0.12
A0A0D9SEI3|A0A0D9SEN2|A0A0D9SER5|B7ZVY7 and related entries (UniProt P21127+B7ZVY7),0.968 ± 0.025,0.944 ± 0.044,0.958 ± 0.041,0.914 ± 0.046,0.872 ± 0.013,0.899 ± 0.046,0.885 ± 0.062,0.887 ± 0.068
A0A0A0MQS2|F5H0Q6 (UniProt Q8N2M8),1.06 ± 0.13,1.02 ± 0.11,1.09 ± 0.15,1.08 ± 0.18,1.14 ± 0.19,1.1 ± 0.059,1.19 ± 0.15,1.19 ± 0.14
A0A0C4DGZ0 (UniProt P24928),1.08 ± 0.063,1.14 ± 0.12,1.11 ± 0.12,1.17 ± 0.18,1.17 ± 0.18,1.13 ± 0.19,1.11 ± 0.16,1.06 ± 0.15
A0A0C4DH01|Q9NVU0 and related entries (UniProt Q9NVU0),1.02 ± 0.087,1.05 ± 0.059,1.09 ± 0.085,1.15 ± 0.095,1.13 ± 0.079,1.13 ± 0.11,1.17 ± 0.11,1.12 ± 0.17
A0A0A0MQU4|Q96I15 (UniProt Q96I15),1.03 ± 0.12,1.04 ± 0.1,0.984 ± 0.084,0.971 ± 0.091,0.99 ± 0.1,0.944 ± 0.076,0.932 ± 0.079,0.921 ± 0.074
UniProt A4D1E9 and related entries,1.04 ± 0.087,1.06 ± 0.025,1.06 ± 0.051,1.11 ± 0.099,1.19 ± 0.14,1.19 ± 0.093,1.26 ± 0.14,1.25 ± 0.21
A0A0U1RQF0|P49327 (UniProt P49327),1.06 ± 0.056,1.07 ± 0.097,0.992 ± 0.075,1.02 ± 0.12,1.02 ± 0.093,0.993 ± 0.12,0.964 ± 0.055,0.932 ± 0.057
A0A0C4DGW2|P57768 and related entries (UniProt P57768),0.978 ± 0.045,0.924 ± 0.0066,1.02 ± 0.034,0.931 ± 0.063,0.934 ± 0.1,0.941 ± 0.025,0.959 ± 0.048,0.902 ± 0.016
A0A0C4DH44|P62888 (UniProt P62888),0.94 ± 0.043,0.936 ± 0.056,0.983 ± 0.067,0.997 ± 0.083,0.944 ± 0.14,0.946 ± 0.14,0.794 ± 0.054,0.985 ± 0.14
A0A0A0MSU2|Q6PJG2 (UniProt Q6PJG2),1.06 ± 0.035,1.12 ± 0.068,1.08 ± 0.071,1.1 ± 0.07,1.07 ± 0.041,1.07 ± 0.045,1.13 ± 0.095,1.14 ± 0.04
A0A087WY82|Q9Y624 and related entries (UniProt Q9Y624),1 ± 0.041,0.953 ± 0.1,0.979 ± 0.038,0.938 ± 0.059,0.851 ± 0.066,0.952 ± 0.01,0.858 ± 0.076,0.898 ± 0.011
A0A087WZX2|O95139 (UniProt O95139),0.936 ± 0.098,0.882 ± 0.1,1.06 ± 0.05,1.08 ± 0.029,1.03 ± 0.05,1.06 ± 0.037,0.972 ± 0.084,1.1 ± 0.1
A0A087X0Q9|Q9BVL4 (UniProt Q9BVL4),1.06 ± 0.12,1.1 ± 0.068,1.01 ± 0.12,1.1 ± 0.2,1.05 ± 0.17,1.06 ± 0.19,1.01 ± 0.16,1.04 ± 0.22

# Some of the entries so far, as tab-separated lines:
Target	NP40-soluble protein abundance (concentration: 0.1mM)	NP40-soluble protein abundance (concentration: 0.5mM)	NP40-soluble protein abundance (concentration: 1mM)	NP40-soluble protein abundance (concentration: 2mM)	NP40-soluble protein abundance (concentration: 4mM)	NP40-soluble protein abundance (concentration: 6mM)	NP40-soluble protein abundance (concentration: 8mM)	NP40-soluble protein abundance (concentration: 10mM)
A0A0C4DGZ0 (UniProt P24928)	1.08 ± 0.063	1.14 ± 0.12	1.11 ± 0.12	1.17 ± 0.18	1.17 ± 0.18	1.13 ± 0.19	1.11 ± 0.16	1.06 ± 0.15
A0A0C4DH01|Q9NVU0 and related entries (UniProt Q9NVU0)	1.02 ± 0.087	1.05 ± 0.059	1.09 ± 0.085	1.15 ± 0.095	1.13 ± 0.079	1.13 ± 0.11	1.17 ± 0.11	1.12 ± 0.17
A0A0U1RQF0|P49327 (UniProt P49327)	1.06 ± 0.056	1.07 ± 0.097	0.992 ± 0.075	1.02 ± 0.12	1.02 ± 0.093	0.993 ± 0.12	0.964 ± 0.055	0.932 ± 0.057
A0A0C4DH44|P62888 (UniProt P62888)	0.94 ± 0.043	0.936 ± 0.056	0.983 ± 0.067	0.997 ± 0.083	0.944 ± 0.14	0.946 ± 0.14	0.794 ± 0.054	0.985 ± 0.14
